This passage reports survivor count and T/C results from PubChem BioAssay AID256 (DTP/NCI, 2004).

In the test the test system is CD2F1 mice, L1210 leukemia ip, survival T/C. The test is described as follows: NCI In Vivo Anticancer Drug Screen. Data for tumor model L1210 Leukemia (intraperitoneal) in CD2F1 (CDF1) mice. As to conditions: higher T/C = longer survival. The method, boiled down:
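Activity against a transplanted murine tumor was judged by comparing the compound group with a vehicle group. The outcome in the treated animals was divided by that in the controls.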

The mark [1] stands for this setting: T/C endpoint: mean survival time, dose: 400.0 mg/kg/injection, schedule: Q04DX002 (ip), vehicle: saline with Tween-80.
Setting [2] is: T/C endpoint: mean survival time, dose: 400.0 mg/kg/injection, schedule: Q04DX003 (ip), vehicle: saline with Tween-80.
Where [3] appears, read: T/C endpoint: mean survival time, dose: 100.0 mg/kg/injection, schedule: Q04DX003 (ip), vehicle: saline with Tween-80.
Setting [4] is: T/C endpoint: mean survival time, dose: 400.0 mg/kg/injection, schedule: Q04DX003 (ip), vehicle: saline.
Setting [5] is: T/C endpoint: median survival time, dose: 100.0 mg/kg/injection, schedule: Q01DX009 (ip), vehicle: saline with Tween-80.
[6] abbreviates: T/C endpoint: mean survival time, dose: 200.0 mg/kg/injection, schedule: Q04DX003 (ip), vehicle: saline with Tween-80.
The mark [7] stands for this setting: T/C endpoint: mean survival time, dose: 25.0 mg/kg/injection, schedule: Q01DX009 (ip), vehicle: saline with Tween-80.

The list is a part of this screen's results and no random one: it gathers tests that were run many times, whatever their T/C, doses with no T/C, and many T/C values between a quarter and a half above the control. Other doses and runs of a compound stand elsewhere. T/C gives the treated animals as a percentage of the vehicle group. Some doses have a count of surviving animals in place of a T/C: the source files T/C as zero there, which appears to mark a toxic dose or a test without result, not a measured value. Some doses without a T/C left all or most animals alive at the check, yet need not have been tolerated: survival well below the control is almost never listed, so the zero probably covers shortened survival too. Counts of survivors are from the toxicity check (mostly the fifth day) where no day follows; animals may have died later. Schedules are NCI's codes, read here as Q, the interval in days (D) or hours (H), X, the number of doses. Where survival is the endpoint, the PubChem record calls one and a half times the control and up active, and a quarter to a half above the control has no call in these data; cut-offs in other NCI protocols can differ. Some entries hold several experiments; the results are listed from low to high. Some T/C values carry the count of animals alive at the toxicity check (mostly the fifth day); without a count, all were alive then.

For the compound `CN=C([Se])NC`, the survivor count runs as follows: (T/C endpoint: mean survival time, dose: 50.0 mg/kg/injection, schedule: Q04DX002 (ip), vehicle: saline with Tween-80) 0 of 3; (T/C endpoint: mean survival time, dose: 100.0 mg/kg/injection, schedule: Q04DX002 (ip), vehicle: saline with Tween-80) 0 of 3; (T/C endpoint: mean survival time, dose: 200.0 mg/kg/injection, schedule: Q04DX002 (ip), vehicle: saline with Tween-80) 0 of 3; under setting [1], 0 of 3.
Turning to `CCC(CC)C(O)CC(O)CC(C)C` (centres undefined), the survivor count (T/C endpoint: mean survival time, dose: 200.0 mg/kg/injection, schedule: Q04DX003 (ip), vehicle: other) is on record as 6 of 6.
In the case of `COc1ccc([Se][Se]c2ccc(OC)cc2NC(C)=O)c(NC(C)=O)c1`, under setting [2], the survivor count was 6 of 6.
Take `CC1(C)N=C(N)N=C(N)N1c1ccc(Cl)c(C(F)(F)F)c1`: the survivor count under setting [3] is 2 of 6.
With `CC(=O)C(Cl)C(=O)c1c(C)[nH]n(-c2ccccc2)c1=O` (centres undefined), the survivor count by setting is: (T/C endpoint: median survival time, dose: 200.0 mg/kg/injection, schedule: Q01DX005 (ip), vehicle: Klucel (hydroxypropylcellulose) (HPC)) 1 of 6; (T/C endpoint: median survival time, dose: 400.0 mg/kg/injection, schedule: Q01DX005 (ip), vehicle: Klucel (hydroxypropylcellulose) (HPC)) 0 of 6.
As to `CCOC(=O)c1cnc(N(C)C)nc1SC(=N)N`, the survivor count was 1 of 6 (T/C endpoint: mean survival time, dose: 200.0 mg/kg/injection, schedule: Q01DX009 (ip), vehicle: saline) and 0 of 6 under setting [4].
In the case of `O=C(O)c1cccc2c1-c1c(cccc1[N+](=O)[O-])C2`, the survivor count under setting [2] was 2 of 6.
Consider `Oc1c(Cl)cc(Cl)cc1C=NCC1CCC(CN=Cc2cc(Cl)cc(Cl)c2O)CC1` (centres undefined), for which the survivor count under setting [3] is 6 of 6.
`O=C(CCCN1CCC(C(O)c2ccc(F)cc2)CC1)c1ccc(F)cc1` (centres undefined): the T/C runs as follows: (T/C endpoint: median survival time, dose: 12.5 mg/kg/injection, schedule: Q01DX009 (ip), vehicle: saline with Tween-80) 127 % of control; (T/C endpoint: median survival time, dose: 25.0 mg/kg/injection, schedule: Q01DX009 (ip), vehicle: saline with Tween-80) 129 and 137 % of control; (T/C endpoint: median survival time, dose: 50.0 mg/kg/injection, schedule: Q01DX009 (ip), vehicle: saline with Tween-80) 133 % of control [5 of 6 alive]; under setting [5], 135 % of control; (T/C endpoint: median survival time, dose: 100.0 mg/kg/injection, schedule: Q01DX009 (oral), vehicle: saline with Tween-80) 127 % of control. Moreover, the survivor count was 0 of 6 under setting [5]; 5 of 10 (T/C endpoint: median survival time, dose: 100.0 mg/kg/injection, schedule: Q06HX014 (oral), vehicle: saline with Tween-80); 6 of 10 (T/C endpoint: median survival time, dose: 150.0 mg/kg/injection, schedule: Q01DX009 (oral), vehicle: saline with Tween-80); 4 of 7 (T/C endpoint: median survival time, dose: 200.0 mg/kg/injection, schedule: Q01DX009 (oral), vehicle: saline with Tween-80); 1 of 7 (T/C endpoint: median survival time, dose: 400.0 mg/kg/injection, schedule: Q01DX009 (oral), vehicle: saline with Tween-80); 5 of 10 (T/C endpoint: median survival time, dose: 400.0 mg/kg/injection, schedule: Q04DX003 (oral), vehicle: saline with Tween-80).
As to `C=CCOCC(O)CN(CCC)CCC` (centres undefined), the survivor count is 6 of 6 (T/C endpoint: mean survival time, dose: 100.0 mg/kg/injection, schedule: Q04DX003 (ip), vehicle: saline); 1 of 6 under setting [6]; 0 of 6 under setting [2].
For the compound `COc1ccc2c(c1OC(C)=O)-c1cc(OC(C)=O)cc3c1C(C2)N(C(=O)CCl)CC3` (centres undefined), the survivor count (T/C endpoint: mean survival time, dose: 200.0 mg/kg/injection, schedule: Q04DX003 (ip), vehicle: DMSO) is 2 of 6 and the survivor count (T/C endpoint: mean survival time, dose: 400.0 mg/kg/injection, schedule: Q04DX003 (ip), vehicle: DMSO) is 1 of 6.
Take `COC1=CC(C)(C)C2=C(CN(C)CC2)C1(C)C`: the survivor count (T/C endpoint: mean survival time, dose: 75.0 mg/kg/injection, schedule: Q01DX001 (ip), vehicle: saline) is recorded as 3 of 6; the survivor count (T/C endpoint: mean survival time, dose: 150.0 mg/kg/injection, schedule: Q01DX001 (ip), vehicle: saline) is 0 of 6; the survivor count (T/C endpoint: mean survival time, dose: 300.0 mg/kg/injection, schedule: Q01DX001 (ip), vehicle: saline) is 0 of 6.
As to `[O-][n+]1onc2ccc(Cl)cc21`, the survivor count is listed as 2 of 6 (T/C endpoint: mean survival time, dose: 200.0 mg/kg/injection, schedule: Q04DX003 (ip), vehicle: Klucel (hydroxypropylcellulose) (HPC)) and 0 of 6 (T/C endpoint: mean survival time, dose: 400.0 mg/kg/injection, schedule: Q04DX003 (ip), vehicle: Klucel (hydroxypropylcellulose) (HPC)).
Take `CC([O-])C(=O)[O-].NCC1CCC1CN.[Pt+4]` (centres undefined): the T/C (T/C endpoint: median survival time, dose: 3.12 mg/kg/injection, schedule: Q04DX003 (ip), vehicle: saline) is 125 % of control and the T/C (T/C endpoint: median survival time, dose: 6.25 mg/kg/injection, schedule: Q04DX003 (ip), vehicle: saline) was 144 % of control. Moreover, the survivor count is 6 of 6 (T/C endpoint: median survival time, dose: 50.0 mg/kg/injection, schedule: Q04DX003 (ip), vehicle: saline); 6 of 6 (T/C endpoint: median survival time, dose: 100.0 mg/kg/injection, schedule: Q04DX003 (ip), vehicle: saline); 0 of 6 (T/C endpoint: median survival time, dose: 200.0 mg/kg/injection, schedule: Q04DX003 (ip), vehicle: saline).
In the case of `CC1OC1C(=O)C1(O)C(C)C(O)C23OC2(C(O)c2c(O)cccc2C3=O)C1O` (centres undefined), where the note is “T/C endpoint: mean survival time, dose: 16.0 mg/kg/injection, schedule: Q01DX009 (ip), vehicle: Klucel (hydroxypropylcellulose) (HPC)”, the survivor count is 1 of 6.
Take `COc1ccc([N+](=O)[O-])cc1C[S+](C)C`: the survivor count is 1 of 3 (T/C endpoint: mean survival time, dose: 50.0 mg/kg/injection, schedule: Q01DX009 (ip), vehicle: Klucel (hydroxypropylcellulose) (HPC)); 0 of 3 (T/C endpoint: mean survival time, dose: 100.0 mg/kg/injection, schedule: Q01DX009 (ip), vehicle: Klucel (hydroxypropylcellulose) (HPC)); 0 of 3 (T/C endpoint: mean survival time, dose: 200.0 mg/kg/injection, schedule: Q01DX009 (ip), vehicle: Klucel (hydroxypropylcellulose) (HPC)).
For the compound `O=C(O)C(C(=O)O)C1Cc2cccc3cccc1c23` (centres undefined), the survivor count is, setting by setting: (T/C endpoint: mean survival time, dose: 200.0 mg/kg/injection, schedule: Q01DX001 (ip), vehicle: saline with Tween-80) 2 of 6; (T/C endpoint: mean survival time, dose: 400.0 mg/kg/injection, schedule: Q01DX001 (ip), vehicle: saline with Tween-80) 0 of 6.
As to `CCCCCCCCCCCCCCCCCCNC(=S)NCCCCCCCCCCCCCCCCCC`, the survivor count under setting [7] is 6 of 6.
Regarding `CC(C)(C)c1ccc(OCCO)cc1`, the survivor count (T/C endpoint: mean survival time, dose: 200.0 mg/kg/injection, schedule: Q01DX009 (ip), vehicle: other) is reported as 3 of 6; the survivor count under setting [6] is 6 of 6; the survivor count (T/C endpoint: mean survival time, dose: 400.0 mg/kg/injection, schedule: Q01DX009 (ip), vehicle: other) is recorded as 0 of 6; the survivor count under setting [2] is on record as 1 of 6.
For `C=CC(=O)O`, the survivor count is on record as 6 of 6 (T/C endpoint: mean survival time, dose: 14.0 mg/kg/injection, schedule: Q01DX009 (ip), vehicle: acetone); 6 of 6 (T/C endpoint: mean survival time, dose: 21.0 mg/kg/injection, schedule: Q01DX009 (ip), vehicle: acetone); 0 of 6 under setting [7]; 1 of 3 (T/C endpoint: mean survival time, dose: 25.0 mg/kg/injection, schedule: Q04DX003 (ip), vehicle: Klucel (hydroxypropylcellulose) (HPC)); 4 of 6 (T/C endpoint: mean survival time, dose: 50.0 mg/kg/injection, schedule: Q04DX003 (ip), vehicle: saline with Tween-80).
As for `NC(=O)CCc1ccnc2ccccc12`, the survivor count under setting [1] is reported as 1 of 3.
For the compound `O=C(O)c1ccc(Cl)cc1Nc1ccc(Cl)cc1`, the survivor count is given as 2 of 6 under setting [6] and 0 of 6 under setting [2].
Turning to `CCNC(C)(C)C(SSSC(c1ccc(Cl)cc1)C(C)(C)NCC)c1ccc(Cl)cc1` (centres undefined), the survivor count under setting [4] is on record as 1 of 6.
